# The whole screen tested about 340,000 compounds, of which about 4,500 (1.3%) were called active. The shares of active, inactive and inconclusive entries below differ from those in the screen. Calls come from the whole dose curve; as a rule, active = well fitted inhibition curve with a large enough effect; inconclusive = small, poorly fitted or top-dose-only effect, or another doubt; inactive = no such curve, though single readings can be large or run the other way. Potencies of inconclusive entries are doubtful fits and often do not repeat.
# Target: DNA polymerase beta (Homo sapiens) (UniProt P06746)
# Assay: qHTS Assay for Inhibitors of DNA Polymerase Beta
# Conditions: Pol beta primer extension/strand displacement, fluorescence kinetic; activity change, negative = inhibition: at 114 µM (top of the series)
# In short: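 Pol beta (10 nM) was preincubated with compound for 15 min at room temperature. The reaction was then started with 50 nM substrate and read immediately and after a further 10 min at room temperature.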
# % is set by controls: 0 for no effect and ±100 for the full control effect; potency is the fitted concentration of half-maximal effect.
SMILES,Potency,"activity change, negative = inhibition"
COCCOC(=O)c1c(C)oc2ccc(NS(=O)(=O)c3cccs3)cc12,"inconclusive: 50.1 µM [inhibitor, partial curve]",–
CCC(=O)c1ccc(NC(C)=O)cc1O,"inconclusive: 89.1 µM [inhibitor, single point]",–
CCn1nc(C)c(CN2CCN(Cc3ccc(OC)c(C)c3C)C(CCO)C2)c1C (stereo not drawn),"inconclusive: 89.1 µM [inhibitor, single point]",–
CC(=O)N1CCOc2ccc(S(=O)(=O)NCc3ccc(Cl)cc3)cc21,–,inconclusive: -33.8% [inhibitor]
CCc1ccc(S(=O)(=O)c2nnn3c2nc(NCc2cccc(OC)c2)c2cc(Cl)ccc23)cc1,inactive,–
Cc1ccsc1CN(C(=O)c1ccc(Br)cc1)C1CCS(=O)(=O)C1 (stereo not drawn),inactive,–
CC1CCN(C(=O)CSc2ccc(-c3cccnc3)nn2)CC1,inactive,–
CCOC(=O)COc1cccc2c(=O)n(CC(=O)NCc3ccccc3)ccc12,–,inconclusive: -38.5% [inhibitor]
O=C1N/C(=C/c2cccn2-c2ccc(F)cc2)C(=O)N1Cc1ccccc1,inactive,–
COc1ccccc1C(=O)N1c2ccccc2C(C)(c2ccc(Cl)cc2)CC1(C)C (stereo not drawn),inactive,–
COc1cccc2sc(NNC(=O)COc3ccccc3)nc12,"inconclusive: 89.1 µM [inhibitor, single point]",–
Nc1nc(SCC(=O)NCCC(c2ccccc2)c2ccccc2)n[nH]1,"inconclusive: 89.1 µM [inhibitor, single point]",–
Oc1c(Cl)cc(Cl)c2c1NCCC2,inactive,–
c1ccc(-c2nc3ccccc3[nH]2)cc1,inactive,–
CCc1ccc(C(=O)OCC(=O)NC2CCCC2)cc1,"inconclusive: 50.1 µM [inhibitor, single point]",–
O=C(c1ccco1)N1CCN(c2nc(C(F)(F)F)nc3c2nnn3Cc2ccccc2)CC1,"inconclusive: 79.4 µM [inhibitor, partial curve, poor fit]",–
CCCN(Cc1nnc(-c2ccccc2Cl)o1)C(=O)c1cc([N+](=O)[O-])cc([N+](=O)[O-])c1,"inconclusive: 89.1 µM [inhibitor, single point]",–
Cc1ccc(NC(=O)c2ncc(Cl)c(Cl)c2Cl)cc1C,"inconclusive: 0.282 µM [inhibitor, full curve, poor fit]",–
O=C(Cn1c(=O)nc(-c2ccccc2F)c2cc(Cl)ccc21)Nc1ccccc1C(F)(F)F,inactive,–
COC(=O)c1ccc(CSc2ccc3nnc(-c4cccc(F)c4)n3n2)o1,inactive,–
CCNC1=C(Cl)C(=O)c2ccccc2C1=O,"inconclusive: 15.8 µM [inhibitor, full curve, poor fit]",–
CC(C)=CCC(C)(C)C1OCCN1C(=O)c1ccccc1 (stereo not drawn),"inconclusive: 89.1 µM [inhibitor, single point]",–
S=c1[nH]nc(-c2ccco2)n1/N=C/C=C/c1ccco1,active: 35.5 µM,–
O=c1c(C(c2c(O)nc3n(c2=O)CCS3)c2cccc3ccccc23)c(O)nc2n1CCS2,"inconclusive: 79.4 µM [inhibitor, single point]",–
Cc1cc(C(=O)COC(=O)CC2Sc3ccccc3NC2=O)c(C)n1-c1cccc(C(F)(F)F)c1 (stereo not drawn),"inconclusive: 10 µM [inhibitor, full curve]",–

# Reformatted tab-delimited: four of the compounds above.
SMILES	Potency	activity change, negative = inhibition
CCC(=O)c1ccc(NC(C)=O)cc1O	inconclusive: 89.1 µM [inhibitor, single point]	–
O=C1N/C(=C/c2cccn2-c2ccc(F)cc2)C(=O)N1Cc1ccccc1	inactive	–
COc1cccc2sc(NNC(=O)COc3ccccc3)nc12	inconclusive: 89.1 µM [inhibitor, single point]	–
O=C(Cn1c(=O)nc(-c2ccccc2F)c2cc(Cl)ccc21)Nc1ccccc1C(F)(F)F	inactive	–

# Entries from the list above that contain a thiophene ring, fused or not:
SMILES,Potency,"activity change, negative = inhibition"
COCCOC(=O)c1c(C)oc2ccc(NS(=O)(=O)c3cccs3)cc12,"inconclusive: 50.1 µM [inhibitor, partial curve]",–
Cc1ccsc1CN(C(=O)c1ccc(Br)cc1)C1CCS(=O)(=O)C1 (stereo not drawn),inactive,–

# The results go on.

SMILES,Potency,"activity change, negative = inhibition"
CC(=O)Oc1ccc(C(=O)Nc2cccc(-c3nnc(-c4ccco4)o3)c2)cc1,active: 20 µM,–
COc1ccc(NC(=S)N2CCC(Cc3ccccc3)CC2)cc1OC,inactive,–
Cc1ccc(Nc2ncnc3onc(C)c23)cc1Cl,inactive,–
CCc1cc2c(SCc3ccc(C(=O)OC)o3)ncnc2s1,inactive,–
CCOC(=O)c1cc(C#N)c(=S)[nH]c1C,inactive,–
Nc1nonc1-c1nc2ccccc2n1CC(=O)N/N=C/c1ccc(-c2cccc(C(=O)O)c2)o1,active: 20 µM,–
COc1cccc(C(=O)Nc2nc3nc(C)c(C)c(=O)n3[nH]2)c1,"inconclusive: 35.5 µM [inhibitor, partial curve]",–
O=C(CSc1nnc(-c2ccccc2)o1)c1nnc(-c2ccccc2)o1,inactive,–
COc1ccc(CCNS(=O)(=O)c2ccc(F)c(C(=O)Nc3ccc(Cl)cc3)c2)cc1OC,inactive,–
COc1ccc(CCN2C(=O)CN=C2Nc2ccc(F)cc2)cc1OC,"inconclusive: 89.1 µM [inhibitor, single point]",–
COc1cc(NS(=O)(=O)c2ccc(NC(=S)NC(=O)/C=C/c3ccc(OC)c(OC)c3)cc2)ncn1,inactive,–
COc1ccc(CCNC(=O)NC23CC4CC(CC(C4)C2)C3)cc1OC,"inconclusive: 0.1 µM [inhibitor, full curve, poor fit]",–
CCCOC1CCCN(Cc2nc(-c3ccc(C(=O)OC)cc3)no2)C1 (stereo not drawn),inactive,–
Cc1cc(C)cc(OCC(=O)OCC(=O)NCc2cccs2)c1,"inconclusive: 4.47 µM [inhibitor, single point]",–
CCCCOC(=O)c1ccc(NC(=O)Cc2coc3c(C)c(C)ccc23)cc1,inactive,–
c1cc(Nc2cccc3nccnc23)c2nccnc2c1,"inconclusive: 79.4 µM [inhibitor, single point]",–
COC(=O)c1ccccc1NC(=O)C1(c2cccs2)CCOCC1,inactive,–
COc1cccc(NC(=O)CSc2nccn2Cc2ccc3c(c2)OCO3)c1,inactive,–
Cc1ccc(Cl)cc1NC(=O)Cn1nc(-c2cccs2)ccc1=O,"inconclusive: 50.1 µM [inhibitor, partial curve]",–
CCOc1ccc(NC(=O)CCC(=O)NNC(=O)COc2ccc(C)cc2Br)cc1,"inconclusive: 35.5 µM [inhibitor, partial curve]",–
Cc1ccccc1N1CC(C(=O)Nc2nnc(SCCC3OCCO3)s2)CC1=O (stereo not drawn),active: 14.1 µM,–
O=C(c1cc(-c2ccc(Cl)cc2)on1)N1CCc2ccccc2C1,"inconclusive: 79.4 µM [inhibitor, single point]",–
Cc1ccc2nc(N3C(=O)C(O)=C(C(=O)c4ccc(C)o4)C3c3cccc(O)c3)sc2c1 (stereo not drawn),"inconclusive: 7.08 µM [inhibitor, partial curve]",–
O=C(O)CCC(=O)N1CCc2cc(S(=O)(=O)N3CCC(Cc4ccccc4)CC3)ccc21,"inconclusive: 100 µM [inhibitor, single point]",–
COc1ccc(C(=O)CSc2nnc(CNC(=O)c3ccc(OC)cc3)n2C)cc1,"inconclusive: 89.1 µM [inhibitor, single point]",–

SMILES,Potency,"activity change, negative = inhibition"
COc1cc2c(C#N)c(N3CCCCC3)nc(N)c2c(N)n1,inactive,–
CCN(CC(=O)NCc1ccccc1Cl)CC(=O)Nc1c(F)cccc1F,"inconclusive: 79.4 µM [inhibitor, single point]",–
CCOc1ccccc1Oc1coc2cc(OCC(=O)O)ccc2c1=O,active: 10 µM,–
C/C(CC(=O)Nc1ccc2ccccc2c1)=N\NC(=O)c1ccc(O)c(O)c1,active: 3.55 µM,–
CCOc1ccc(S(=O)(=O)N(C(=O)c2ccco2)c2cc3sc(=O)oc3c3ccccc23)cc1,inactive,–
CCOC(=O)Cn1nc(-c2ccccc2)c2cnc3ccc(OCC)cc3c21,"inconclusive: 22.4 µM [inhibitor, full curve]",–
COC(=O)C1=C2SC(C)C(=O)N2C(N)=C(C#N)C1c1ccc(OC)c(OC)c1 (stereo not drawn),inactive,–
CCC1CN(C(=O)C2CCN(S(=O)(=O)c3c(C)noc3/C=C/c3ccccc3F)CC2)c2cc(Cl)ccc2O1 (stereo not drawn),inactive,–
Cc1cc(C(=O)OCC(=O)Nc2cc(S(=O)(=O)N3CCOCC3)ccc2Cl)c(C)o1,"inconclusive: 89.1 µM [inhibitor, single point]",–
CCC1=NN2C(=N)/C(=C/c3ccc(OS(=O)(=O)c4ccccc4)c(OC)c3)C(=O)N=C2S1,inactive,–
O=C(N/N=C/c1cccc(OC(=O)c2cccc(Br)c2)c1)c1ccncc1,"inconclusive: 25.1 µM [inhibitor, full curve, poor fit]",–
CCCN(CCC)CCNC(=O)CN1C(=O)COc2ccc(S(=O)(=O)N3CCC(C)CC3)cc21,inactive,–
O=C(c1cccc(Cl)c1)N1CCN(c2ncnc3c2cnn3-c2ccccc2)CC1,"inconclusive: 8.91 µM [inhibitor, full curve]",–
O=C(COc1ccc(/C=N/NC(=O)c2ccncc2)cc1)Nc1ccccc1,"inconclusive: 56.2 µM [inhibitor, partial curve]",–
N/C(=N\N=C\c1ccnc2ccccc12)SC1CC(=O)N(c2ccc(Br)cc2)C1=O (stereo not drawn),"inconclusive: 79.4 µM [inhibitor, single point]",–
O=C(Nc1ccccc1-c1nc2ccccc2s1)C1=COCCO1,"inconclusive: 15.8 µM [inhibitor, full curve]",–
Cc1ccc2c(=O)cc(C(=O)Nc3ccc(S(=O)(=O)Nc4nc(C)cc(C)n4)cc3)oc2c1,"inconclusive: 11.2 µM [inhibitor, partial curve, poor fit]",–
Cc1ccc(N/N=C/c2ccc3c(c2)OCCO3)cc1Cl,inactive,–
O=C(NC1CCS(=O)(=O)C1)c1cccc(S(=O)(=O)N2CCOCC2)c1 (stereo not drawn),"inconclusive: 89.1 µM [inhibitor, single point]",–
CC(C)CCNC(=O)CN(Cc1cccs1)C(=O)CCC(=O)Nc1nccs1,"inconclusive: 63.1 µM [inhibitor, single point]",–
Cc1ccc(-n2[nH]c(C)c(C=Nc3ccc(S(=O)(=O)Nc4nccs4)cc3)c2=O)cc1C,"inconclusive: 79.4 µM [inhibitor, partial curve]",–
CC(=O)Nc1cccc(-c2nc3ccccc3s2)c1,inactive,–
Cc1ccccc1C(=O)Nc1ccc(C(=O)NNC(=O)CCCOc2ccc(Cl)cc2Cl)cc1,"inconclusive: 39.8 µM [inhibitor, full curve]",–

# Reference: PubChem BioAssay AID485314 (National Center for Advancing Translational Sciences (NCATS), 2010)
